According to ChEMBL document CHEMBL3351789, “Triazolopyridines as selective JAK1 inhibitors: from hit identification to GLPG0634” (J Med Chem, 2014):

Assay: Kinetic solubility of the compound at pH 7.4
Conditions: buffer

Structure (SMILES): O=C(Nc1nc2cccc(-c3ccc(NS(=O)(=O)C4CC4)cc3)n2n1)C1CC1
- solubility kinetic: > 80 µg/mL
